Article doi:10.1101/2023.07.25.550451
No constants are given. Whether binding was seen depends on the method and setting. Tags and fused reporters may be left off the sequences shown.

Protein sequences, listed by entry. Tags and fused reporters are not part of them. Lines headed by an entry give the natural chain unless they say otherwise; changes in a name come on top. Chains listed by the source or under a name are the forms on record and can include a tag or linker.
UniProt Q969W3: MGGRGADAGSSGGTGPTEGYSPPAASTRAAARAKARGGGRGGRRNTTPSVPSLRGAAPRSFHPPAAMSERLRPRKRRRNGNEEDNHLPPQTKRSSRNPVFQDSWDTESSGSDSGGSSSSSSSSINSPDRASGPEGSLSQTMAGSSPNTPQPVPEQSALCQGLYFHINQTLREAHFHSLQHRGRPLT
GST-FAM104A isoform 1 (Q969W3, form named): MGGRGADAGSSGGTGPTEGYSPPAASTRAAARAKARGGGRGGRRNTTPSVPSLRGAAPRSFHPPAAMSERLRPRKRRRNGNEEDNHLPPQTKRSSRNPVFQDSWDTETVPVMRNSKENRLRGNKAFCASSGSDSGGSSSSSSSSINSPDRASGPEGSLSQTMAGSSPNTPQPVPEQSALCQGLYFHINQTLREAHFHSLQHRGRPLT

B1: His6-p47 (protein, UniProt Q9UNZ2 1-370)
chain: MAAERQEALREFVAVTGAEEDRARFFLESAGWDLQIALASFYEDGGDEDIVTISQATPSSVSRGTAPSDNRVTSFRDLIHDQDEDEEEEEGQRFYAGGSERSGQQIVGPPRKKSPNELVDDLFKGAKEHGAVAVERVTKSPGETSKPRPFAGGGYRLGAAPEEESAYVAGEKRQHSSQDVHVVLKLWKSGFSLDNGELRSYQDPSNAQFLESIRRGEVPAELRRLAHGGQVNLDMEDHRDEDFVKPKGAFKAFTGEGQKLGSTAPQVLSTSSPAQQAENEAKASSSILIDESEPTTNIQIRLADGGRLVQKFNHSHRISDIRLFIVDARPAMAATSFILMTTFPNKELADESQTLKEANLLNAVIVQRLT
B2: His6-UBXN7 (protein, UniProt O94888 1-489)
chain: MAAHGGSAASSALKGLIQQFTTITGASESVGKHMLEACNNNLEMAVTMFLDGGGIAEEPSTSSASVSTVRPHTEEEVRAPIPQKQEILVEPEPLFGAPKRRRPARSIFDGFRDFQTETIRQEQELRNGGAIDKKLTTLADLFRPPIDLMHKGSFETAKECGQMQNKWLMINIQNVQDFACQCLNRDVWSNEAVKNIIREHFIFWQVYHDSEEGQRYIQFYKLGDFPYVSILDPRTGQKLVEWHQLDVSSFLDQVTGFLGEHGQLDGLSSSPPKKCARSESLIDASEDSQLEAAIRASLQETHFDSTQTKQDSRSDEESESELFSGSEEFISVCGSDEEEEVENLAKSRKSPHKDLGHRKEENRRPLTEPPVRTDPGTATNHQGLPAVDSEILEMPPEKADGVVEGIDVNGPKAQLMLRYPDGKREQITLPEQAKLLALVKHVQSKGYPNERFELLTNFPRRKLSHLDYDITLQEAGLCPQETVFVQERN

How the values were obtained:
[1] = target: GST-FAM104A isoform 1 (human) (UniProt Q969W3); experiment: pull-down
[2] = target: GST-FAM104A isoform 2 (human) (UniProt Q969W3); experiment: pull-down

Binder | binding [1] | binding [2]
B1 | no binding | no binding
B2 | no binding | no binding
